Data taken from US8420777B2, “Compounds that inhibit Hsp90 protein-protein interactions with IAP proteins” (University of Massachusetts, priority 2004, dated 2013).

Test system: HeLa cells
Experiment: Internalization of cell permeable peptides, streptavidin-PE fluorescence microscopy
Format: cell-based, Human
Settings: 150 μM, 6 hours; for internalization into cells: 37° C.

**Q.** How did the “intracellular penetration efficiency (fluorescence of 25 individual cells)” value turn out when “RQIKIWFQNRRMKWKKSKLACFSHG (Synthetically generated peptide) [P33, reference compound]” was run?
**A.** indistinguishable penetration efficiency

**Q.** What about the internalization into cells of the same sequence?
**A.** efficient internalization

**Q.** With “RQIKIWFQNRRMKWKKKHSSGCAFL (Synthetically generated peptide) [P31]” as the sequence, how does the “intracellular penetration efficiency (fluorescence of 25 individual cells)” value read?
**A.** indistinguishable penetration efficiency

**Q.** What about the internalization into cells of the same sequence?
**A.** efficient internalization
